Laboratory results: PubChem BioAssay AID652259 (Drosophila RNAi Screening Center, 2013)
Test: 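Knock-downs that push a Wingless-driven reporter up or down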 (primary screen). Cell system: Drosophila clone 8 imaginal disc epithelial cells. Reagents: long dsRNA against Drosophila genes. Conditions: pathway stimulated by co-transfected Wingless expression plasmid. Measured: 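Dual luciferase reads per well after Wingless plasmid stimulation: reporter firefly light and Renilla control light; activity is firefly divided by Renilla, a ratio not deposited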. Direction: firefly reporter light: higher = more Wg reporter light, before normalisation; Renilla control light: higher = more transfected or surviving cells. Hit rule: 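a knock-down is a candidate when at least two out of four statistical tests show it departing from its plate mean; one test alone signals a weak candidate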. Meaning of the calls: active = candidate regulator (raises or lowers reporter); inactive = not a candidate.
The deposit covers about 22,000 reagents; this is a random part of those with a known target gene and a result. Of all reagents, 233 (1.1%) were called active. 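Light values are raw, unnormalised plate reads; the ratio scores behind the reporter calls were not deposited.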 Unmarked entries are inactive. Names joined by + are all predicted targets of the reagent. The record does not give: the amount of reagent, the time to read-out, the dose of the treatment.

HP1e [DRSC16379]
- firefly reporter light, replicate 1: 9933
- Renilla control light, replicate 1: 1648

CG32712 [DRSC17820]
- firefly reporter light, replicate 1: 3981
- firefly reporter light, replicate 2: 9064
- Renilla control light, replicate 1: 533
- Renilla control light, replicate 2: 1719

Dtwd2 [DRSC12501]
- firefly reporter light, replicate 1: 15289
- Renilla control light, replicate 1: 3884

CG34038 [DRSC04039]
- firefly reporter light, replicate 1: 18801
- Renilla control light, replicate 1: 8951

kto [DRSC10983]
- firefly reporter light, replicate 1: 4534
- Renilla control light, replicate 1: 1952

repo [DRSC16369]
- firefly reporter light, replicate 1: 11044
- Renilla control light, replicate 1: 1205

DptA [DRSC07404]
- firefly reporter light, replicate 1: 13888
- Renilla control light, replicate 1: 2957

shop [DRSC20030]
- firefly reporter light, replicate 1: 2889
- firefly reporter light, replicate 2: 7980
- Renilla control light, replicate 1: 1202
- Renilla control light, replicate 2: 2672

ppk8 [DRSC17269]
- firefly reporter light, replicate 1: 3620
- Renilla control light, replicate 1: 1625

CG1231 [DRSC08267]
- firefly reporter light, replicate 1: 4320
- Renilla control light, replicate 1: 3100

CG9452 [DRSC11075]
- firefly reporter light, replicate 1: 11577
- Renilla control light, replicate 1: 2720

CG14131 [DRSC10135]
- firefly reporter light, replicate 1: 6024
- Renilla control light, replicate 1: 2673

wat [DRSC14854]
- firefly reporter light, replicate 1: 8928
- Renilla control light, replicate 1: 3703

Pstk + CG14210 + Tim9b [DRSC19566]
- firefly reporter light, replicate 1: 15261
- Renilla control light, replicate 1: 9285

nord [DRSC04210]
- firefly reporter light, replicate 1: 2026
- firefly reporter light, replicate 2: 7650
- Renilla control light, replicate 1: 571
- Renilla control light, replicate 2: 2500

nord [DRSC04361]
- firefly reporter light, replicate 1: 2280
- firefly reporter light, replicate 2: 7664
- Renilla control light, replicate 1: 434
- Renilla control light, replicate 2: 1767

Cyp28d1 [DRSC03298]
- firefly reporter light, replicate 1: 14836
- Renilla control light, replicate 1: 6512

Cyp28d1 [DRSC21331]
- firefly reporter light, replicate 1: 6.69e5
- firefly reporter light, replicate 2: 7.65e5
- Renilla control light, replicate 1: 5.79e5
- Renilla control light, replicate 2: 3.39e5
